This is one part of the list.
Tests used:
Experiment in all cases: glycan array binding signal (z-score within array); higher = stronger binding
Settings in all cases: glycan notation: IUPAC condensed, linker removed
Gal(a1-3)Gal(b1-3)GlcNAc = molecular target: Gal(a1-3)Gal(b1-3)GlcNAc
Method in brief: (§1)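 From the Consortium for Functional Glycomics database, 3228 arrays were curated, keeping only those whose protein sequence was available. Binding is given as a within-array Z-score averaged across arrays sharing a protein sequence and across linkers. Negative Z-scores can be read as non-binding.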

[1] = molecular target: Gal(a1-3)Gal(b1-3)GlcNAc(b1-2)Man
Method in brief: as §1

[2] = molecular target: Gal(a1-3)Gal(b1-3)GlcNAc(b1-2)Man(a1-3)[Gal(a1-3)Gal(b1-3)GlcNAc(b1-2)Man(a1-6)]Man(b1-4)GlcNAc(b1-4)GlcNAc
Method in brief: as §1

[3] = molecular target: Gal(a1-3)Gal(b1-3)GlcNAc(b1-3)GalNAc
Method in brief: as §1

[4] = molecular target: Gal(a1-3)Gal(b1-3)GlcNAc(b1-6)GalNAc
Method in brief: as §1

[5] = molecular target: Gal(a1-3)Gal(b1-3)[Fuc(a1-4)]GlcNAc(b1-2)Man(a1-3)[Gal(a1-3)Gal(b1-3)[Fuc(a1-4)]GlcNAc(b1-2)Man(a1-6)]Man(b1-4)GlcNAc(b1-4)GlcNAc
Method in brief: as §1

Gal(a1-3)Gal(b1-4)Glc = molecular target: Gal(a1-3)Gal(b1-4)Glc
Method in brief: as §1

Gal(a1-3)Gal(b1-4)GlcNAc = molecular target: Gal(a1-3)Gal(b1-4)GlcNAc
Method in brief: as §1

[6] = molecular target: Gal(a1-3)Gal(b1-4)GlcNAc(b1-2)Man
Method in brief: as §1

[7] = molecular target: Gal(a1-3)Gal(b1-4)GlcNAc(b1-2)Man(a1-3)[Gal(a1-3)Gal(b1-4)GlcNAc(b1-2)Man(a1-6)]Man(b1-4)GlcNAc(b1-4)GlcNAc
Method in brief: as §1

[8] = molecular target: Gal(a1-3)Gal(b1-4)GlcNAc(b1-3)GalNAc
Method in brief: as §1

[9] = molecular target: Gal(a1-3)Gal(b1-4)GlcNAc(b1-6)GalNAc
Method in brief: as §1

[10] = molecular target: Gal(a1-3)Gal(b1-4)[Fuc(a1-3)]GlcNAc
Method in brief: as §1

[11] = molecular target: Gal(a1-3)Gal(b1-4)[Fuc(a1-3)]GlcNAc(b1-2)Man(a1-3)[Gal(a1-3)Gal(b1-4)[Fuc(a1-3)]GlcNAc(b1-2)Man(a1-6)]Man(b1-4)GlcNAc(b1-4)GlcNAc
Method in brief: as §1

Gal(a1-3)GalNAc = molecular target: Gal(a1-3)GalNAc
Method in brief: as §1

[12] = molecular target: Gal(a1-3)[Gal(a1-4)]Gal(b1-4)GlcNAc
Method in brief: as §1

[13] = molecular target: Gal(a1-4)Gal(b1-3)GlcNAc(b1-2)Man(a1-3)[Gal(a1-4)Gal(b1-3)GlcNAc(b1-2)Man(a1-6)]Man(b1-4)GlcNAc(b1-4)GlcNAc
Method in brief: as §1

Gal(a1-4)Gal(b1-4)Glc = molecular target: Gal(a1-4)Gal(b1-4)Glc
Method in brief: as §1

Gal(a1-4)Gal(b1-4)GlcNAc = molecular target: Gal(a1-4)Gal(b1-4)GlcNAc
Method in brief: as §1

[14] = molecular target: Gal(a1-4)Gal(b1-4)GlcNAc(b1-2)Man(a1-3)[Gal(a1-4)Gal(b1-4)GlcNAc(b1-2)Man(a1-6)]Man(b1-4)GlcNAc(b1-4)GlcNAc
Method in brief: as §1

[15] = molecular target: Gal(a1-4)Gal(b1-4)GlcNAc(b1-3)Gal(b1-4)Glc
Method in brief: as §1

Gal(a1-4)GlcNAc = molecular target: Gal(a1-4)GlcNAc
Method in brief: as §1

Gal(a1-6)Glc = molecular target: Gal(a1-6)Glc
Method in brief: as §1

Gal(b1-2)Gal = molecular target: Gal(b1-2)Gal
Method in brief: as §1

Gal(b1-3)Gal = molecular target: Gal(b1-3)Gal
Method in brief: as §1

Gal(b1-3)Gal(b1-4)GlcNAc = molecular target: Gal(b1-3)Gal(b1-4)GlcNAc
Method in brief: as §1

Gal(b1-3)GalNAc = molecular target: Gal(b1-3)GalNAc
Method in brief: as §1

[16] = molecular target: Gal(b1-3)GalNAc(a1-3)[Fuc(a1-2)]Gal(b1-4)Glc
Method in brief: as §1

[17] = molecular target: Gal(b1-3)GalNAc(a1-3)[Fuc(a1-2)]Gal(b1-4)GlcNAc
Method in brief: as §1

Gal(b1-3)GalNAc(b1-3)Gal = molecular target: Gal(b1-3)GalNAc(b1-3)Gal
Method in brief: as §1

[18] = molecular target: Gal(b1-3)GalNAc(b1-3)Gal(a1-4)Gal(b1-4)Glc
Method in brief: as §1

[19] = molecular target: Gal(b1-3)GalNAc(b1-4)Gal(b1-4)Glc
Method in brief: as §1

[20] = molecular target: Gal(b1-3)GalNAc(b1-4)[Neu5Ac(a2-3)]Gal(b1-4)Glc
Method in brief: as §1

Gal(b1-3)GlcNAc = molecular target: Gal(b1-3)GlcNAc
Method in brief: as §1

[21] = molecular target: Gal(b1-3)GlcNAc(a1-3)Gal(b1-4)GlcNAc
Method in brief: as §1

[22] = molecular target: Gal(b1-3)GlcNAc(a1-6)Gal(b1-4)GlcNAc
Method in brief: as §1

Gal(b1-3)GlcNAc(b1-2)Man = molecular target: Gal(b1-3)GlcNAc(b1-2)Man
Method in brief: as §1

[23] = molecular target: Gal(b1-3)GlcNAc(b1-2)Man(a1-3)[Gal(b1-3)GlcNAc(b1-2)Man(a1-6)]Man(b1-4)GlcNAc(b1-4)GlcNAc
Method in brief: as §1

B1: B936 (Bifidobacterium sp) (protein)
chain: MKNWKKAIALVASAAALVSVAACGPSNAGGSSDSGKKTVGFVAVGPEGGFRTANEKDIQKAFEDAGFDLTYSPTQNNDQQKQIQAFNKFVNDEVDAIILSSTEDSGWDDSLKKAAEAEIPVFTVDRNVDVKDAEAKKAIVAHIGPSNVWCGEQAAEFVNKNFPDGANGFILEGPAGLSVVKDRGTGWGNKVASNVKVLESQSANWSTDEAKTVTAGLLDKYKSDNPQFIFAQNDEMGLGAAQAVDAAGLKGKVKIITIDGTKNALQALVDGDLSYVIEYNPIFGKETAQAVKDYLDGKTVEKDIEIESKTFDAASAKEALDNNTRAY
Gal(a1-3)Gal(b1-3)GlcNAc
  glycan array binding signal (z-score): -0.318
[1]
  glycan array binding signal (z-score): -0.791
[2]
  glycan array binding signal (z-score): 2.85
[3]
  glycan array binding signal (z-score): -0.167
[4]
  glycan array binding signal (z-score): 0.552
[5]
  glycan array binding signal (z-score): 2.05
Gal(a1-3)Gal(b1-4)Glc
  glycan array binding signal (z-score): 0.066
Gal(a1-3)Gal(b1-4)GlcNAc
  glycan array binding signal (z-score): -0.375
[6]
  glycan array binding signal (z-score): -0.923
[7]
  glycan array binding signal (z-score): 0.178
[8]
  glycan array binding signal (z-score): -0.121
[9]
  glycan array binding signal (z-score): -0.248
[10]
  glycan array binding signal (z-score): -0.894
[11]
  glycan array binding signal (z-score): -0.401
Gal(a1-3)GalNAc
  glycan array binding signal (z-score): 0.152
[12]
  glycan array binding signal (z-score): -0.369
[13]
  glycan array binding signal (z-score): 1.41
Gal(a1-4)Gal(b1-4)Glc
  glycan array binding signal (z-score): 0.94
Gal(a1-4)Gal(b1-4)GlcNAc
  glycan array binding signal (z-score): 0.366
[14]
  glycan array binding signal (z-score): 2.19
[15]
  glycan array binding signal (z-score): 0.104
Gal(a1-4)GlcNAc
  glycan array binding signal (z-score): -0.136
Gal(a1-6)Glc
  glycan array binding signal (z-score): 0.001
Gal(b1-2)Gal
  glycan array binding signal (z-score): -0.366
Gal(b1-3)Gal
  glycan array binding signal (z-score): 0.891
Gal(b1-3)Gal(b1-4)GlcNAc
  glycan array binding signal (z-score): 11.1
Gal(b1-3)GalNAc
  glycan array binding signal (z-score): 4.57
[16]
  glycan array binding signal (z-score): 0.324
[17]
  glycan array binding signal (z-score): -0.084
Gal(b1-3)GalNAc(b1-3)Gal
  glycan array binding signal (z-score): -0.457
[18]
  glycan array binding signal (z-score): -0.187
[19]
  glycan array binding signal (z-score): -0.182
[20]
  glycan array binding signal (z-score): -0.187
Gal(b1-3)GlcNAc
  glycan array binding signal (z-score): 0.44
[21]
  glycan array binding signal (z-score): -0.62
[22]
  glycan array binding signal (z-score): -0.317
Gal(b1-3)GlcNAc(b1-2)Man
  glycan array binding signal (z-score): 0.248
[23]
  glycan array binding signal (z-score): 0.048
